Publication PMC5467174

The chains behind the UniProt entries cited, without tags or fusion partners.
UniProt Q9UKV8: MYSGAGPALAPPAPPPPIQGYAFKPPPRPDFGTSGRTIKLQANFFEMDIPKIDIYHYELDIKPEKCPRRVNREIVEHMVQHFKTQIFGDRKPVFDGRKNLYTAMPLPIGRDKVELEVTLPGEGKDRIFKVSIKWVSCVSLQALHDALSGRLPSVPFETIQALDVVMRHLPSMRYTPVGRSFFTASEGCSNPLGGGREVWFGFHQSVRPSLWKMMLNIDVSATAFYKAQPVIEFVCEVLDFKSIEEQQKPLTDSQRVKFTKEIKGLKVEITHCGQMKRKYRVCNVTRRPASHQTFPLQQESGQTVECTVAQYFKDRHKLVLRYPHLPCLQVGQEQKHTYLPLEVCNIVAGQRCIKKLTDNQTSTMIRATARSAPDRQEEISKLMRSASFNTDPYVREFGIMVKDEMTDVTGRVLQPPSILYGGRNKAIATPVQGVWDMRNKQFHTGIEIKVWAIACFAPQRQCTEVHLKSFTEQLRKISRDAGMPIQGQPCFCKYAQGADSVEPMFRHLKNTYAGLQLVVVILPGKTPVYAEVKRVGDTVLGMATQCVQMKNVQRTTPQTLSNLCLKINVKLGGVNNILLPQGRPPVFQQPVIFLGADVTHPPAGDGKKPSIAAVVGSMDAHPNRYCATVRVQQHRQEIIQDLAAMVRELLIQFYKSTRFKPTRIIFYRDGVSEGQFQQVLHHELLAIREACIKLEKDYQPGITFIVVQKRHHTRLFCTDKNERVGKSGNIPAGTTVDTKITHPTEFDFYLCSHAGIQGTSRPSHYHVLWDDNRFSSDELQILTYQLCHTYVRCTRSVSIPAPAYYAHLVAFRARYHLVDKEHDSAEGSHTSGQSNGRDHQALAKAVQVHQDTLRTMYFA
UniProt Q9UPY3: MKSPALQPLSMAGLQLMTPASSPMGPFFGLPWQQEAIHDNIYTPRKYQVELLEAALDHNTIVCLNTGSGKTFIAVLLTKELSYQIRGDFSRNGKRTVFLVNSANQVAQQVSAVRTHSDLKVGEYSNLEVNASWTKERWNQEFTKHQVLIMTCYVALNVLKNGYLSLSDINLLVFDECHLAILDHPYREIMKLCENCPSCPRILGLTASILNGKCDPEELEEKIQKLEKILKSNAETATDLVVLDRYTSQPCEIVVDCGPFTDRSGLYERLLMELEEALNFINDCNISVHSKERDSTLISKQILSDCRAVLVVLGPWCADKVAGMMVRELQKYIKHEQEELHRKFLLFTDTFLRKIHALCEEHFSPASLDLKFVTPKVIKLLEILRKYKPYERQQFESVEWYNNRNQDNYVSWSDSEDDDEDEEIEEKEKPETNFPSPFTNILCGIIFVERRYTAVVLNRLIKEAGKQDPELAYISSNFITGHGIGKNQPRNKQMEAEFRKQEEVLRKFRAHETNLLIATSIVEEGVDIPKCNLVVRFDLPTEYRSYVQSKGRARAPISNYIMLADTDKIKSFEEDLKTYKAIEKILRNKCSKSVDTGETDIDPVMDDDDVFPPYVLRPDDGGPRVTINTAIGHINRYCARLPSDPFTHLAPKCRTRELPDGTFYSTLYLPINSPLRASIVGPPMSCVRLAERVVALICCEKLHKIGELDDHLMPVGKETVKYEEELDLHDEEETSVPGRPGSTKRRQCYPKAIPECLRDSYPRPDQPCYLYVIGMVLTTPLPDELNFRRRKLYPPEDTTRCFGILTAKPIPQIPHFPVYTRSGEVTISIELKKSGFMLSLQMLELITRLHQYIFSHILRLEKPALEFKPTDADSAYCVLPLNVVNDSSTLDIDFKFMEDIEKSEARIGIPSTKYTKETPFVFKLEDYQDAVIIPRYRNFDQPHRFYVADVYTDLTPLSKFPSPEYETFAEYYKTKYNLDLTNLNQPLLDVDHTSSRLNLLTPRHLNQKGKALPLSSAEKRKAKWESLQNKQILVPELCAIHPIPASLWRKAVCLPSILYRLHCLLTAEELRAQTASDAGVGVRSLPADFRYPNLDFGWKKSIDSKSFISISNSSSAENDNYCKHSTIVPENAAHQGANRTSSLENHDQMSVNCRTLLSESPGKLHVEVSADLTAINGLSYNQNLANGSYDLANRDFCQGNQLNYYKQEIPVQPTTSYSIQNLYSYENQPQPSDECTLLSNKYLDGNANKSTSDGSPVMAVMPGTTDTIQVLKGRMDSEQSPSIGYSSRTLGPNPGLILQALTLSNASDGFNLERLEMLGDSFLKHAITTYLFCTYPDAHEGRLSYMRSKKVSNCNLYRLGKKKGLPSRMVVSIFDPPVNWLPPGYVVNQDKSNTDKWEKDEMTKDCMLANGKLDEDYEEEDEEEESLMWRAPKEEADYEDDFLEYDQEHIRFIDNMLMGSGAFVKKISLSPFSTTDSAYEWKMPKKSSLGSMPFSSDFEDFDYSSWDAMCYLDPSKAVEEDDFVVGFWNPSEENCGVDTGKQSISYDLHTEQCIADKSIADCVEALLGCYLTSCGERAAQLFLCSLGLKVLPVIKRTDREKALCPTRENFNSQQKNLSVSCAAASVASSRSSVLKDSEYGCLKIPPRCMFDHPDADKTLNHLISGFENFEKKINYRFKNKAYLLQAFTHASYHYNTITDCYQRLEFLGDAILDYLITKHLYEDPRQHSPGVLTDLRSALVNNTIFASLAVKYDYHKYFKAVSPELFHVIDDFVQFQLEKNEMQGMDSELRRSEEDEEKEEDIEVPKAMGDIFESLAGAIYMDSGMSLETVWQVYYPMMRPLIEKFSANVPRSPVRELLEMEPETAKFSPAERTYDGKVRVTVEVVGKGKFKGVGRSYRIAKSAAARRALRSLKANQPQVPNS
UniProt Q9HCJ0: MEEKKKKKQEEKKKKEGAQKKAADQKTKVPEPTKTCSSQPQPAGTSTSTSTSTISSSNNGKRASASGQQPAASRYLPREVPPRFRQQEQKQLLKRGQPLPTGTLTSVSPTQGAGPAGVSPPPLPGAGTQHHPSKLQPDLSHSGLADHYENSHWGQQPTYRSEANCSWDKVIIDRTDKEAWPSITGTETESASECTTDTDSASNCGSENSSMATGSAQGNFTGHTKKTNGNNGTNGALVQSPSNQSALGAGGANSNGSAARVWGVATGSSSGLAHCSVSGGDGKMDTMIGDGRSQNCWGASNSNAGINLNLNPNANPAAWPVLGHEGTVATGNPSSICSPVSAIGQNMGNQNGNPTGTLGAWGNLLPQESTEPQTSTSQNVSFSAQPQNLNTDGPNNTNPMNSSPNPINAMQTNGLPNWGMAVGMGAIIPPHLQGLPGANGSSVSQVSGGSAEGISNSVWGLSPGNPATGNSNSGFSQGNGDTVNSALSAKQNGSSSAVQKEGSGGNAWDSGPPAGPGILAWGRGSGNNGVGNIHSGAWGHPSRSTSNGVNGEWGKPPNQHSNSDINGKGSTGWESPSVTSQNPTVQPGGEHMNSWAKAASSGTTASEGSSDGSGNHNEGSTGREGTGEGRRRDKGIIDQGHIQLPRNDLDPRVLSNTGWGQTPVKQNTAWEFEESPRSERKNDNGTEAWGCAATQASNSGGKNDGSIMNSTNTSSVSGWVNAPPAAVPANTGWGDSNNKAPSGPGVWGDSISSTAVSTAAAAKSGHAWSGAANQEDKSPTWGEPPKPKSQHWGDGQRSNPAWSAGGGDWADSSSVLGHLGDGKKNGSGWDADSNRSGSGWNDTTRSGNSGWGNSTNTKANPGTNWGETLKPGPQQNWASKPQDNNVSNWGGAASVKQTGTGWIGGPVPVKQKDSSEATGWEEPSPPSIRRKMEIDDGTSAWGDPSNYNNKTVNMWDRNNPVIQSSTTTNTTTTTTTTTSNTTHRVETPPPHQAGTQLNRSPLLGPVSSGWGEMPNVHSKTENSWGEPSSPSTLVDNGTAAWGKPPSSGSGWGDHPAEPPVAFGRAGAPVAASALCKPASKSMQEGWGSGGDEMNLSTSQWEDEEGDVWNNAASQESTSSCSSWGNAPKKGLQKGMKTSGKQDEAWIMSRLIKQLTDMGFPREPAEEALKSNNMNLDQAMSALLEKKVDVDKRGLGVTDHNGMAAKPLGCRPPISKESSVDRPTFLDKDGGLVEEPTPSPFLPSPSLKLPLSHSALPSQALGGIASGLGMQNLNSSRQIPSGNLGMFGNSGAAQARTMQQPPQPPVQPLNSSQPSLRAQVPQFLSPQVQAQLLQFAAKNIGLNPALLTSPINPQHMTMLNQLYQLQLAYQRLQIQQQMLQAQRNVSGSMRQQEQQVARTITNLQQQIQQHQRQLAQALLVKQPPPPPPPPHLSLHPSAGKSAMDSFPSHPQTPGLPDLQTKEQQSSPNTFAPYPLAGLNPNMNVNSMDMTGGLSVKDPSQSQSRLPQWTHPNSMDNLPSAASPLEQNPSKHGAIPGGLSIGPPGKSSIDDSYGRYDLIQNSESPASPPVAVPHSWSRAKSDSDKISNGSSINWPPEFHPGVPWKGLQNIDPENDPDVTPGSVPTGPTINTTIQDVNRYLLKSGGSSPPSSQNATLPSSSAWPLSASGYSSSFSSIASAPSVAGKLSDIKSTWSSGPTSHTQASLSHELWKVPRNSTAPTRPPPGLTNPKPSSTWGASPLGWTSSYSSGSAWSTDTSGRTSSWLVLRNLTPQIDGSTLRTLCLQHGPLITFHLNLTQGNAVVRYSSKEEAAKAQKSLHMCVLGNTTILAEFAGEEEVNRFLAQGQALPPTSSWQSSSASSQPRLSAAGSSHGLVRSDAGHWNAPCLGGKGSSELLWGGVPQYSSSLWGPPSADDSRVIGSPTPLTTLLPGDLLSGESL

Molecular target: BirA*-Ago2 (UniProt Q9UKV8)
Assay: proximity labelling; classical BioID with BirA*-Ago2 in a stable HeLa 11ht cell line; 50 μM biotin, 25 ng/ml doxycycline, 24 h; capture on streptavidin beads, MS

## Dicer (endogenous) (from UniProt Q9UPY3 1-1922) (enzyme)
  binding: binds

## TNRC6C (endogenous) (from UniProt Q9HCJ0 1-1936)
  binding: binds

These are yes or no findings as the source states them, for the method shown. In cells and extracts the contact can be indirect. Here binding means that the protein was enriched with, or labelled near, the bait; the list need not be complete.
